No constants are given. Whether binding was seen depends on the method and setting. Binding seen in cells or lysates may run through a third protein. These calls come from enrichment with a bait or labelling near it, and not all partners need be listed.
Target: GFP-tagged CSB (UniProt Q03468)
Assay: affinity purification with mass spectrometry; label-free quantification and iBAQ; GFP-CSB pulled down with GFP Trap beads from U2OS CSB-KO cells; untreated against 20 J/m^2 UV-C with 1 h recovery

Protein sequences, listed by entry. Tags and fused reporters are not part of them.
UniProt Q13619: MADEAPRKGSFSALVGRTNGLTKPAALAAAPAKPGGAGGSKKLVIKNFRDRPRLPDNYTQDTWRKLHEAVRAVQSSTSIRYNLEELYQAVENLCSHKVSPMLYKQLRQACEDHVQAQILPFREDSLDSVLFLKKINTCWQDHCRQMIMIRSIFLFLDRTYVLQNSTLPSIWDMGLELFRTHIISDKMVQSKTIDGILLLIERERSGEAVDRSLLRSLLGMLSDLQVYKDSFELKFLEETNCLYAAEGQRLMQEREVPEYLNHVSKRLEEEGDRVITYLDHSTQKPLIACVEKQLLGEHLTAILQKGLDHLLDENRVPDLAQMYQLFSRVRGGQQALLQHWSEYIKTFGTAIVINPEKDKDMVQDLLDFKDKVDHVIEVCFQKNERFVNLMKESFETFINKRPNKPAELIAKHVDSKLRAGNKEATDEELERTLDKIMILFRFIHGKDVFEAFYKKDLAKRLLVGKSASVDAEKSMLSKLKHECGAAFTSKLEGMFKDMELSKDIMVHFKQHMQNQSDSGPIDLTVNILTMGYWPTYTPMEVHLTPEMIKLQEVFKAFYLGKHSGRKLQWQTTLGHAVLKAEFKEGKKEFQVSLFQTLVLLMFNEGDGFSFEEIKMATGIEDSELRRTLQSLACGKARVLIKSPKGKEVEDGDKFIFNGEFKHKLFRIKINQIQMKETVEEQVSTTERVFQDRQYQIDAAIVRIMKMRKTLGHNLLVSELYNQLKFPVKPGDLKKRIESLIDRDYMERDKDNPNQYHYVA
UniProt Q16531: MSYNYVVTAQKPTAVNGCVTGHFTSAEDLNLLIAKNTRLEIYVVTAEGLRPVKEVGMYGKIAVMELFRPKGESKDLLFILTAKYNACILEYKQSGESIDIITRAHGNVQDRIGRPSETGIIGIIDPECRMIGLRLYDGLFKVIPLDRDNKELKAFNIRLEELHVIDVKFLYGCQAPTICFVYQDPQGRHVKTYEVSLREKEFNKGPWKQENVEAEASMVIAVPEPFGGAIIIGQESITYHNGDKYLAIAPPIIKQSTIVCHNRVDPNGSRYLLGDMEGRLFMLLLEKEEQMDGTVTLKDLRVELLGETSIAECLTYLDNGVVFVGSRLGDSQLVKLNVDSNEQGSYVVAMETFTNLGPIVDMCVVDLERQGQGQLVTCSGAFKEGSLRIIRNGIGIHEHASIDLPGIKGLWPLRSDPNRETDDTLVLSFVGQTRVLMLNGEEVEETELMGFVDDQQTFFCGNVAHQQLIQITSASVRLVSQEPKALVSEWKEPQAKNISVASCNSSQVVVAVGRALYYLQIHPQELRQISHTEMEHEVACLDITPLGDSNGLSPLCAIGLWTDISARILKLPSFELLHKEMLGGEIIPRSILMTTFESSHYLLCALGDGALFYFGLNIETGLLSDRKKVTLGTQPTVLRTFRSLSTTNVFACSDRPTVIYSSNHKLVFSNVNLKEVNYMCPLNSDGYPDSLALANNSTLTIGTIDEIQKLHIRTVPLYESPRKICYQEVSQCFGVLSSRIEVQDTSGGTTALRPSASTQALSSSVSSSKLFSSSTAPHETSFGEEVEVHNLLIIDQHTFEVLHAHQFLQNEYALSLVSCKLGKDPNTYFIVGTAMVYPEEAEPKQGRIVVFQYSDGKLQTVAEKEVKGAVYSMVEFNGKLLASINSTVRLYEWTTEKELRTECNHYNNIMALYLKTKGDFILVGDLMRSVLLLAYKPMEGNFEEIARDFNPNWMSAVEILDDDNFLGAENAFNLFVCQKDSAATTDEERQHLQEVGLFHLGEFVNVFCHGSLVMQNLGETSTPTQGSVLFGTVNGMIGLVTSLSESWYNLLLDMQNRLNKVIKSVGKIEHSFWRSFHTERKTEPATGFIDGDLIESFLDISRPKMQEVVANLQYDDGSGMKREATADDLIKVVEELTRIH

Substance | binding
CUL4A, endogenous (from UniProt Q13619 1-759) | binds
DDB1, endogenous (from UniProt Q16531 1-1140) | binds

Reference: PMC7910549
